Results are given in words; binding and its absence hold for the method and conditions named. Binding calls can cover weak binding; strength is not graded here. Tags and fused reporters may be left off the sequences shown.
T1: recombinant EhCFIm25 protein (25 kDa subunit of Cleavage Factor Im of Entamoeba histolytica) (Entamoeba histolytica) (UniProt C4M2T1)
T1 sequence: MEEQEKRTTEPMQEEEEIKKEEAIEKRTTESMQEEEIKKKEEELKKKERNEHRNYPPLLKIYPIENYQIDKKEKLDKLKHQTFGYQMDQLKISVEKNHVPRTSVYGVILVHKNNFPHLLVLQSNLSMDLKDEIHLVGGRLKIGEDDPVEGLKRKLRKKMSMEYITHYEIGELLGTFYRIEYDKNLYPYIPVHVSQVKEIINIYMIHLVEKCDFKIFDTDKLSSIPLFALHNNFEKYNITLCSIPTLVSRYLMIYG


Legend:
[1] = molecular target: T1, recombinant EhCFIm25 protein (25 kDa subunit of Cleavage Factor Im of Entamoeba histolytica) (Entamoeba histolytica); experiment: far-Western; purified rEhCFIm25 (50 ug) after 10% SDS-PAGE on nitrocellulose; incubated 4 h at room temperature with rEhPAP (50 ug/ml) in 200 mM NaCl - Tween 5%; detected with mouse anti-EhPAP antibodies; both purified
[2] = molecular target: recombinant EhPAP protein (poly(A) polymerase of Entamoeba histolytica) (Entamoeba histolytica); experiment: far-Western; purified rEhPAP (50 ug) after SDS-PAGE on nitrocellulose; incubated with purified rEhCFIm25 in the same conditions (200 mM NaCl - Tween 5%); detected with rabbit anti-EhCFIm25 antibodies; both purified

Row | binding [1] | binding [2] | Molecule
1 | binds |  | recombinant EhPAP protein (poly(A) polymerase of Entamoeba histolytica) (enzyme)
2 |  | binds | recombinant EhCFIm25 protein (25 kDa subunit of Cleavage Factor Im of Entamoeba histolytica) (protein, UniProt C4M2T1 1-255) MEEQEKRTTEPMQEEEEIKKEEAIEKRTTESMQEEEIKKKEEELKKKERNEHRNYPPLLKIYPIENYQIDKKEKLDKLKHQTFGYQMDQLKISVEKNHVPRTSVYGVILVHKNNFPHLLVLQSNLSMDLKDEIHLVGGRLKIGEDDPVEGLKRKLRKKMSMEYITHYEIGELLGTFYRIEYDKNLYPYIPVHVSQVKEIINIYMIHLVEKCDFKIFDTDKLSSIPLFALHNNFEKYNITLCSIPTLVSRYLMIYG

Source: article PMC3695940
